Test: general procedure: Fmoc solid-phase peptide synthesis; 2-Cl-trityl resin
Settings: whole synthesis

## linear octapeptide III
  isolated mass: 143 mg
On resin substitution after first amino acid (285 µmol), scale of the general procedure 400 x 10^-6 mol of active groups
  isolated yield: 55%
